The results in this text go back to the supplement of paper PMC10735217.

Counter-ions that a name gives are not always drawn. Some of the results follow. Repeats in this data set agree poorly, so a single value says little.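 The human kidney-derived cells carry a stably integrated construct of eight TEAD-binding elements driving luciferase, read by luminescence in a drug-repurposing library screen. A compound counts as a hit when its signal is more than five robust Z scores above the plate mean.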

The assay has as its system HEK293A TEAD-LUC reporter. Kind of assay: TEAD-luciferase reporter activity (YAP activation), robust Z score vs plate; higher = stronger YAP/TEAD activation. The settings on record: 24 h. A general note: In a reporter assay the amount or activity of a reporter protein is the signal.

With `COc1cc(NCCCC(C)N)c2ncccc2c1` (stereo not drawn), the TEAD-luciferase reporter activity was inactive: -1.04 (compound concentration: 200 nM), inactive: -1.09 (compound concentration: 2 uM) and inactive: -1.22 (compound concentration: 10 uM).
In the case of `O=C(/C=C/c1ccc(Cl)cc1)N[C@@H](Cc1ccccn1)C(=O)NCC(=O)N1CCC(Oc2cc(C(F)(F)F)ncn2)CC1`, the TEAD-luciferase reporter activity was inactive: -0.519 (compound concentration: 200 nM), inactive: -1.11 (compound concentration: 2 uM) and inactive: 1.22 (compound concentration: 10 uM).
Regarding `COC(=O)[C@]12CCC(C)(C)C[C@H]1[C@H]1C(=O)C=C3[C@@]4(C)C=C(C#N)C(=O)C(C)(C)[C@@H]4CC[C@@]3(C)[C@]1(C)CC2` [bardoxolone methyl], the TEAD-luciferase reporter activity (compound concentration: 2 uM) was inactive: -2.88.
Turning to `COC(=O)[C@]12CCC(C)(C)C[C@H]1[C@H]1C(=O)C=C3[C@@]4(C)C=C(C#N)C(=O)C(C)(C)[C@@H]4CC[C@@]3(C)[C@]1(C)CC2` [Bardoxolone Methyl], the TEAD-luciferase reporter activity is, setting by setting: (compound concentration: 200 nM) inactive: 0.856; (compound concentration: 10 uM) inactive: -3.65.
For `CCC1OC(=O)C(C)C(OC2CC(C)(OC)C(O)C(C)O2)C(C)C(OC2OC(C)CC(N(C)C)C2O)C(C)(O)CC(C)CN(C)C(C)C(O)C1(C)O` (stereo not drawn) [azithromycin], the TEAD-luciferase reporter activity by setting is: (compound concentration: 200 nM) inactive: -1.61; (compound concentration: 2 uM) inactive: 0.301; (compound concentration: 10 uM) inactive: 0.842.
For the compound `CC(=O)SC[C@H](Cc1ccccc1)C(=O)NCC(=O)OCc1ccccc1` [Dexecadotril], the TEAD-luciferase reporter activity (compound concentration: 200 nM) was inactive: 0.376, the TEAD-luciferase reporter activity (compound concentration: 2 uM) was inactive: -0.645 and the TEAD-luciferase reporter activity (compound concentration: 10 uM) was inactive: -0.326.
In the same order, the values of `Cc1cc2[nH]cc(C(=O)Nc3ccc(N4CCC(C)(C)C4)cc3C(F)(F)F)c(=O)n2c1` are inactive: -1.02, inactive: -1.26 and inactive: -0.395.
Taken in the same sequence, the figures for `CC(O)c1cc(C(=O)N[C@@H](C)Cn2ccc(-c3ccc(C#N)c(Cl)c3)n2)n[nH]1` (stereo partly drawn) were inactive: -1.65, inactive: -0.259 and inactive: 0.584.
Taken in the same sequence, the figures for `O=C(Nc1ccc(O)c(O)c1)c1cccc(O)c1O` were inactive: -1.13, inactive: -1.32 and inactive: -1.58.
With `CCC[C@H](Nc1nc(-c2ccc(NC(=O)NCC)c(OC)c2)ncc1C)c1cccnc1` [Lexibulin hydrochloride], the TEAD-luciferase reporter activity reads like this: (compound concentration: 200 nM) inactive: 2.41; (compound concentration: 2 uM) inactive: 2.14; (compound concentration: 10 uM) active: 7.36.
In the same order, the values of `[Cl][Ru-3]([Cl])([Cl])([Cl])([n+]1cc2ccccc2[nH]1)[n+]1cc2ccccc2[nH]1.c1ccc2[nH][nH+]cc2c1` are inactive: -0.839, inactive: 0.823 and inactive: 0.722.
In the same order, the values of `Cc1cc(C#N)cc(C)c1Oc1nc(Nc2ccc(C#N)cc2)nc(N)c1Br` [etravirine] are inactive: -0.592, inactive: 0.0684 and inactive: -0.166.
Taken in the same sequence, the figures for `COc1ccc2cc(C(C)C(=O)Oc3ccc(C(N)=S)cc3)ccc2c1` (stereo not drawn) were inactive: -1.05, inactive: -0.0798 and inactive: -0.378.
Turning to `O=C([O-])c1ccc2nc(C(=O)NC3CCN(C4CC4)CC3)n(Cc3cc(-c4ccc(Cl)s4)on3)c2c1`, the TEAD-luciferase reporter activity by setting is: (compound concentration: 200 nM) inactive: -1.31; (compound concentration: 2 uM) inactive: -1.07; (compound concentration: 10 uM) inactive: -1.94.
In the same order, the values of `CCCCCCCOc1ccccc1NC(=O)OC(C)CN(CC)CC` (stereo not drawn) [carbisocaine] are inactive: -1.11, inactive: -0.222 and inactive: 1.75.
With `CO[C@H]1/C=C\O[C@@]2(C)Oc3c(C)c(O)c4c(c3C2=O)C2=NC3(CCN(CC(C)C)CC3)NC2=C(NC(=O)/C(C)=C\C=C/[C@H](C)[C@H](O)[C@@H](C)[C@@H](O)[C@@H](C)[C@H](OC(C)=O)[C@@H]1C)C4=O` [Rifabutin (Mycobutin)], the TEAD-luciferase reporter activity (compound concentration: 200 nM) is inactive: -2.41 and the TEAD-luciferase reporter activity (compound concentration: 10 uM) is inactive: -0.00677.
With `CO[C@H]1/C=C\O[C@@]2(C)Oc3c(C)c(O)c4c(c3C2=O)C2=NC3(CCN(CC(C)C)CC3)NC2=C(NC(=O)/C(C)=C\C=C/[C@H](C)[C@H](O)[C@@H](C)[C@@H](O)[C@@H](C)[C@H](OC(C)=O)[C@@H]1C)C4=O` [rifabutin], the TEAD-luciferase reporter activity (compound concentration: 2 uM) was inactive: -1.59.
For `O=C(c1ccccn1)N1CCN(Cc2ccccc2)CC1` [piberaline], the TEAD-luciferase reporter activity (compound concentration: 200 nM) was inactive: -1.12, the TEAD-luciferase reporter activity (compound concentration: 2 uM) is inactive: -0.748 and the TEAD-luciferase reporter activity (compound concentration: 10 uM) is inactive: -0.117.
Taken in the same sequence, the figures for `CCCCCCCO[C@@H]1[C@H]2OC(C)(C)O[C@H]2O[C@@H]1C(O)CNCc1ccccn1` (stereo partly drawn) were inactive: 1.04, inactive: -1.21 and inactive: -1.47.
In the same order, the values of `O=C(O)c1n[nH]c2c1C[C@H]1C[C@@H]21` are inactive: -0.228, inactive: -2 and inactive: 0.493.
Consider `CC(=O)N1CC2(Cc3ccccc31)CN(C(=O)c1ccccc1Cl)C2`, for which the TEAD-luciferase reporter activity (compound concentration: 200 nM) was inactive: -0.0619 and the TEAD-luciferase reporter activity (compound concentration: 10 uM) was inactive: -1.35.
For `COc1ccc(-c2nc(N3CCOCC3)c3sc(CN(C)c4ncc(C(=O)NO)cn4)cc3n2)cn1`, the TEAD-luciferase reporter activity is, setting by setting: (compound concentration: 200 nM) inactive: 0.0837; (compound concentration: 2 uM) active: 16.9; (compound concentration: 10 uM) active: 25.4.
Take `C[C@H](Cc1ccc(-c2ncc(NC(=O)C(F)(F)F)o2)cc1)N1CC(c2cccc(Cl)c2)OC1=O` (stereo partly drawn): the TEAD-luciferase reporter activity by setting is: (compound concentration: 200 nM) inactive: 0.654; (compound concentration: 2 uM) inactive: 0.739; (compound concentration: 10 uM) inactive: 0.26.
Taken in the same sequence, the figures for `CCC(=O)c1ccc(OCC(O)CN2CCN(c3ccccc3)CC2)cc1` (stereo not drawn) [Centpropazine] were inactive: -1.3, inactive: -0.713 and inactive: -1.1.
Taken in the same sequence, the figures for `CC[C@@H]1/C=C(\C)C[C@H](C)C[C@H](OC)[C@H]2O[C@@](O)(C(=O)C(=O)N3CCCC[C@H]3C(=O)O[C@H](/C(C)=C/[C@@H]3CC[C@@H](O)[C@H](OC)C3)[C@H](C)[C@@H](O)CC1=O)[C@H](C)C[C@@H]2OC` [Immunomycin] were inactive: -0.262, inactive: 0.259 and inactive: 3.7.
